Data from publication PMC5072318.
No constants are given. Whether binding was seen depends on the method and setting. Some binding calls cover weakened binding; strength is not graded here.

The chains behind the UniProt entries cited, without tags or fusion partners.
UniProt P10240: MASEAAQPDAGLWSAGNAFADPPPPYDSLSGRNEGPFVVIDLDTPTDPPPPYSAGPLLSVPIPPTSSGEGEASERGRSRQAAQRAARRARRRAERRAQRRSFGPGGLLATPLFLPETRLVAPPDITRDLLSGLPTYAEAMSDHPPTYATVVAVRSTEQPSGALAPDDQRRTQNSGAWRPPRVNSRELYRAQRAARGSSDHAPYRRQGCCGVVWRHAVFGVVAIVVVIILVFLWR
UniProt P10218: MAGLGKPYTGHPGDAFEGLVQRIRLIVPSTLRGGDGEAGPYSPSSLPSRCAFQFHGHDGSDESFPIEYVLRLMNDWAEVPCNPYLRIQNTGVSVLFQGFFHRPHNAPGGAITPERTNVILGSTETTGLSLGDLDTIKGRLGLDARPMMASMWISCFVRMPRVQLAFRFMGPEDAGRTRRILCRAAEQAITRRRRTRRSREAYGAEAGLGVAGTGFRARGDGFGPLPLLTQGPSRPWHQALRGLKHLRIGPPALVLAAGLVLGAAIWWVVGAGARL
UniProt O43681: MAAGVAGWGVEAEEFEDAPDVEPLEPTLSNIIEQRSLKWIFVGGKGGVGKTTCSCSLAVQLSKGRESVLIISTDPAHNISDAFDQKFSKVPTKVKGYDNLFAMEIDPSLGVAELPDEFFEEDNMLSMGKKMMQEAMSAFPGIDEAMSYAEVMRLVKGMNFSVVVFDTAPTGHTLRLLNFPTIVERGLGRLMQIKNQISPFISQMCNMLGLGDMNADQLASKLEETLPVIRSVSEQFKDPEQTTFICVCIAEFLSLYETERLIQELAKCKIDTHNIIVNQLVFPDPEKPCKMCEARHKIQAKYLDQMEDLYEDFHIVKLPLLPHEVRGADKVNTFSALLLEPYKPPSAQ

How the values were obtained:
[1] = molecular target: HSV1 pUL56 (HSV1) (UniProt P10240); assay: two-hybrid; Asna1 fused to the Gal4 activation domain (prey, pGADT7-AD) against viral proteins fused to the Gal4 DNA-binding domain (bait, pGBKT7-DBD); HIS3 reporter, growth of yeast on selective media
[2] = molecular target: HSV1 pUL34 (HSV1) (UniProt P10218); assay: as above

## Asna1/TRC40 (from UniProt O43681 1-348)
[1]
  binding: binds
[2]
  binding: binds
